Where “and” joins values, the source holds several entries; their conditions need not be identical. Identical values can stand only once. For at least one compound, name, drawing or mass did not settle the structure.
Target: dsDNA
Assay: Fluorescence titrations (affinity towards dsDNA)
Type: binding
Experimental: The affinity of the TramTO derivatives towards dsDNA is usually higher than the affinity of the derivatives without the modified side chain according to this invention. […] KD values are determined as is well known to any person being of ordinary skill in the art.

SMILES: CN(C)c1ccc(/C=C/c2sc3ccccc3[n+]2CCCCCCn2cc(CN)nn2)cc1 [6-TramTAS (2), (E)-3-(6-(4-(aminomethyl)-1H-1,2,3-triazol-1-yl)hexyl)-2-(4-(dimethylamino)styryl)benzo[d]thiazol-3-ium]
- Kd: 28.1 µM and 30.1 µM

Reference: patent US20230096750A1, “Cyanine dyes and their usage for in vivo staining of microorganisms and other living cells” (Philipps-Universität Marburg, priority 2021, published 2023)
